Measurements from article doi:10.1101/2024.01.18.576020.
No constants are given. Whether binding was seen depends on the method and setting. Binding seen in cells or lysates may run through a third protein. Some entries that bind do so weakly or less than the wild type.

Amino acid sequences for entries named in this document (tags omitted). A change or cut given only in a name is not applied to a line headed by its entry. Chains listed by the source or under a name are the forms on record and can include a tag or linker. Residues count along the entry.
UniProt P35372: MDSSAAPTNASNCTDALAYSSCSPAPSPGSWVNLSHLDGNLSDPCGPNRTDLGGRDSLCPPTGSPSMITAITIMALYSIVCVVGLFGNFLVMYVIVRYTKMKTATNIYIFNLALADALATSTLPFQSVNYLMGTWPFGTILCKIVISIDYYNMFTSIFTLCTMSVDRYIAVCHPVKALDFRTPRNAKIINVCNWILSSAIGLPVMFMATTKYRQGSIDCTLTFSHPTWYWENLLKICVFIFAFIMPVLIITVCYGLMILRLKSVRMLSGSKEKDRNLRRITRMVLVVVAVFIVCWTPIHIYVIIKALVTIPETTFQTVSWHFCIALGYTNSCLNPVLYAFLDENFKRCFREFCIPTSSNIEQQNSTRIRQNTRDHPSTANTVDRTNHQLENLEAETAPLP
wild-type human glucagon-like peptide-1 receptor fused to EGFP at its C-terminal end (P43220, residues 24-463): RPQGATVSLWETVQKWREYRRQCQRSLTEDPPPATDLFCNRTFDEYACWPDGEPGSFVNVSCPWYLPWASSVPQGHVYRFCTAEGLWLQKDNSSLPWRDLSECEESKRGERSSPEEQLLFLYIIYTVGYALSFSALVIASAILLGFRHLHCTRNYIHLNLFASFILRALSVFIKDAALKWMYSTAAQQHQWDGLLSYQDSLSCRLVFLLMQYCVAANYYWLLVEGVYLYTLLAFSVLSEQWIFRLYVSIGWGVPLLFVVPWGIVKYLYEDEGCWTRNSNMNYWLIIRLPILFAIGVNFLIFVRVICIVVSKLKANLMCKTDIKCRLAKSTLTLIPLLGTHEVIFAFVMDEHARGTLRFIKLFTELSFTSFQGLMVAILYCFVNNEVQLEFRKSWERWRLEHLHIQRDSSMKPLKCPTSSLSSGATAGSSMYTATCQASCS
human GLP-1R natural genetic variant L443P fused to EGFP at its C-terminal end (P43220, form named): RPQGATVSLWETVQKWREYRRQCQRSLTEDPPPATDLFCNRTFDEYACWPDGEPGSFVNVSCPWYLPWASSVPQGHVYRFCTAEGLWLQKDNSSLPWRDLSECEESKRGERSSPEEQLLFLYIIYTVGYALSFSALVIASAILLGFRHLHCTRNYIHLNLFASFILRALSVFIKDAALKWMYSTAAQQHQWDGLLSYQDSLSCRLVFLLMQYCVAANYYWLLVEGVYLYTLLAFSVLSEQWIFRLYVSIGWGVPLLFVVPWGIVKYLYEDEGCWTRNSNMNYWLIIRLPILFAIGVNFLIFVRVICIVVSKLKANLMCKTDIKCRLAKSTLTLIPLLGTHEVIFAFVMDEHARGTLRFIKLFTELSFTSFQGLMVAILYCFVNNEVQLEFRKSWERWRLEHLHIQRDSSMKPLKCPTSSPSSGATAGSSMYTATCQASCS
human GLP-1R natural genetic variant T440A fused to EGFP at its C-terminal end (P43220, form named): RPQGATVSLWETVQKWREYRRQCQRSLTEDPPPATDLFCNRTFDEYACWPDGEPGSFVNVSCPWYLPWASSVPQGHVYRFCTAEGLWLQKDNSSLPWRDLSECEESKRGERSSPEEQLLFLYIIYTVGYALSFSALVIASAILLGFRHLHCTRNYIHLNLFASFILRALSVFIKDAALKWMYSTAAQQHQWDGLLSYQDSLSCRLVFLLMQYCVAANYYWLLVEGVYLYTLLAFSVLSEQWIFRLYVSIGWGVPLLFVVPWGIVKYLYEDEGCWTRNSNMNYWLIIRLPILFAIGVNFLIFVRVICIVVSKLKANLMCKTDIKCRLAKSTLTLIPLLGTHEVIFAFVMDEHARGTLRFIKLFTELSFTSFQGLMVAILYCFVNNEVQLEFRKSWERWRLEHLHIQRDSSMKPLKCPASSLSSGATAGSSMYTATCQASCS
human GLP-1R natural genetic variant S445T fused to EGFP at its C-terminal end (P43220, form named): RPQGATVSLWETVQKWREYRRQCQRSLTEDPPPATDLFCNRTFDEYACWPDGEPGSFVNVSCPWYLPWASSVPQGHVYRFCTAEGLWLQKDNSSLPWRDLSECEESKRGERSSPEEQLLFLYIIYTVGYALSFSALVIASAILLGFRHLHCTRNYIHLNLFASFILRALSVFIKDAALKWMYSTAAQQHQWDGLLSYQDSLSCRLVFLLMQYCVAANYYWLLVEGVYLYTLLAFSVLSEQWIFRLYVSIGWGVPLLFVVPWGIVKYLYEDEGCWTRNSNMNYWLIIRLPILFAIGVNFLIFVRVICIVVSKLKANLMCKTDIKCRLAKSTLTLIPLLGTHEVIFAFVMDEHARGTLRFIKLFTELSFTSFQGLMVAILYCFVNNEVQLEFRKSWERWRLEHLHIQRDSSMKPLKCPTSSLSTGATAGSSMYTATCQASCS

Key:
Assay in all cases: FRET or BRET
[1] = molecular target: wild-type human μ opioid receptor fused to EGFP at its C-terminal end (human) (UniProt P35372)
[2] = molecular target: wild-type human glucagon-like peptide-1 receptor fused to EGFP at its C-terminal end (human) (UniProt P43220)
[3] = molecular target: human GLP-1R natural genetic variant L443P fused to EGFP at its C-terminal end (human) (UniProt P43220)
[4] = molecular target: human GLP-1R natural genetic variant T440A fused to EGFP at its C-terminal end (human) (UniProt P43220)
[5] = molecular target: human GLP-1R natural genetic variant S445T fused to EGFP at its C-terminal end (human) (UniProt P43220)

Measured: binding

endogenous β-arrestin 2 (from UniProt P32121 1-409)
binds: [1] | [2]

transfected human β-arrestin 2 tagged with Flag-TST (from UniProt P32121 1-409)
binds: [1] | [3] | [2] | [4] | [5]
